Experimental findings from US20180252698 are described below.

Chains of the proteins cited; added tags and fusions are not shown. Lines headed by an entry give the natural chain unless they say otherwise; changes in a name come on top.
UniProt Q04609: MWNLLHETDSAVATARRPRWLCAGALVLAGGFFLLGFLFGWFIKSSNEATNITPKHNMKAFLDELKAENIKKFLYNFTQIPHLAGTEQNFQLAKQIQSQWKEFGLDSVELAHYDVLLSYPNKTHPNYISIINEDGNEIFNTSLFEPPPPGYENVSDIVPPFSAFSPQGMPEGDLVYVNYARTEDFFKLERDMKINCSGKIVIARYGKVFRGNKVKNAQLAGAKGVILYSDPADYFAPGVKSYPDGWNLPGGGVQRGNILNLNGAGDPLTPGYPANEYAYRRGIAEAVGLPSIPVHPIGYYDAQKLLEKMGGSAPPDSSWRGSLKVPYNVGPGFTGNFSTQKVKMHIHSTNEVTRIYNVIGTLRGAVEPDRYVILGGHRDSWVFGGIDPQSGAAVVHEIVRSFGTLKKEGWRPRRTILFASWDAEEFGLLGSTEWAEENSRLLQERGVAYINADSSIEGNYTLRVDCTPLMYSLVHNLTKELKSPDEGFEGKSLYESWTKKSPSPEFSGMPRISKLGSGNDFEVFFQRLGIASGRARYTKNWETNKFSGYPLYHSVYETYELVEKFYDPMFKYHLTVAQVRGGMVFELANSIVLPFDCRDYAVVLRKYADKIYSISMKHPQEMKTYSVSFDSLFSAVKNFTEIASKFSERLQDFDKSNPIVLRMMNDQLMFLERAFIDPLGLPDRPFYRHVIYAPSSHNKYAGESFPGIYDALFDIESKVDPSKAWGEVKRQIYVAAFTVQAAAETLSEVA

The target of data set [1] is PSMA (prostate specific membrane antigen) on LNCaP cells (UniProt Q04609). Kind of data set: binding assay. Conditions: 5' NH2-(CH2)6-(OCH2CH2)6 linker; nuclease-stabilized (modification not specified); LNCaP cell capture from whole blood in PMMA microfluidic channels, 2.5 mm/s; protein on the cell surface; protein details: LNCaP prostate cancer cell line ….
Data set [2] concerns MCF-7 cell surface (off-target breast cancer cell control). As to the kind of experiment: binding assay. Conditions: 5' NH2-(CH2)6-(OCH2CH2)6 linker; nuclease-stabilized (modification not specified); no MCF-7 cells captured from spiked whole blood; protein on the cell surface; protein details: MCF-7 breast cancer cell line, ATCC.

Results from cells or extracts need not show a direct contact. For some assays here: Construct, isoform or probe ends are uncertain for at least one entry. For some assays here: A negative result means that nothing was seen under these conditions.

On to “ACCAAGACCUGACUUCUAACUAAGUCUACGUUCC [anti-PSMA RNA aptamer]”, for which the binding result in data set [1] was “binds”; in data set [2], “no binding”.
